Experimental data published in the supplement of paper PMC6992640.
± gives the standard deviation of the averaged measurements. Most of the lowest values are listed elsewhere, so they are rarer here than in the full data.

Legend:
Assay in all cases: cell viability (% of vehicle); higher = less cytotoxic
Details in all cases: 10 µM; 72 h
HCI01 = test system: HCI01 (cells of a triple-negative basal-like breast cancer xenograft)
HCI03 = test system: HCI03 (cells of an ER-positive luminal breast cancer xenograft)
HCI09 = test system: HCI09 (cells of a triple-negative luminal androgen receptor type breast cancer xenograft)
HCI11 = test system: HCI11 (cells of an ER-positive luminal breast cancer xenograft)
HCI13 = test system: HCI13 (cells of an ER-positive luminal breast cancer xenograft)
HCI16 = test system: HCI16 (cells of a triple-negative basal-like breast cancer xenograft)
UCD52 = test system: UCD52 (cells of a triple-negative basal-like breast cancer xenograft)
WHIM2 = test system: WHIM2 (cells of a triple-negative basal-like breast cancer xenograft)
WHIM30 = test system: WHIM30 (cells of a triple-negative basal-like breast cancer xenograft)
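Also: PDX cells carrying CMV promoter-driven luciferase, viability read as total photon flux per second by IVIS imaging following D-luciferin, vehicle control 0.1% DMSO.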

Q: Which cell viability (HCI01) does the source give for `Br.CN1C2CCC1CC(OC(=O)C(O)c1ccccc1)C2` (centres undefined) [Homatropine Bromide] here?
A: 133 ± 9.9

Q: And the cell viability (HCI03)?
A: 129

Q: And the cell viability (HCI09)?
A: 111 ± 11

Q: What about the cell viability (HCI11) of the same molecule?
A: 99.8

Q: What about the cell viability (HCI13) of the same molecule?
A: 140 ± 15

Q: And the cell viability (HCI16)?
A: 110

Q: And the cell viability (UCD52)?
A: 70.4 ± 13

Q: And the cell viability (WHIM2)?
A: 95.17 ± 0.59

Q: And the cell viability (WHIM30)?
A: 106 ± 4.9
